{"sequences": {"note": "By UniProt entry, the sequences of proteins in these tests, tags left out. Residues count along the entry.", "UniProt Q9QUN7, residues 25-784": "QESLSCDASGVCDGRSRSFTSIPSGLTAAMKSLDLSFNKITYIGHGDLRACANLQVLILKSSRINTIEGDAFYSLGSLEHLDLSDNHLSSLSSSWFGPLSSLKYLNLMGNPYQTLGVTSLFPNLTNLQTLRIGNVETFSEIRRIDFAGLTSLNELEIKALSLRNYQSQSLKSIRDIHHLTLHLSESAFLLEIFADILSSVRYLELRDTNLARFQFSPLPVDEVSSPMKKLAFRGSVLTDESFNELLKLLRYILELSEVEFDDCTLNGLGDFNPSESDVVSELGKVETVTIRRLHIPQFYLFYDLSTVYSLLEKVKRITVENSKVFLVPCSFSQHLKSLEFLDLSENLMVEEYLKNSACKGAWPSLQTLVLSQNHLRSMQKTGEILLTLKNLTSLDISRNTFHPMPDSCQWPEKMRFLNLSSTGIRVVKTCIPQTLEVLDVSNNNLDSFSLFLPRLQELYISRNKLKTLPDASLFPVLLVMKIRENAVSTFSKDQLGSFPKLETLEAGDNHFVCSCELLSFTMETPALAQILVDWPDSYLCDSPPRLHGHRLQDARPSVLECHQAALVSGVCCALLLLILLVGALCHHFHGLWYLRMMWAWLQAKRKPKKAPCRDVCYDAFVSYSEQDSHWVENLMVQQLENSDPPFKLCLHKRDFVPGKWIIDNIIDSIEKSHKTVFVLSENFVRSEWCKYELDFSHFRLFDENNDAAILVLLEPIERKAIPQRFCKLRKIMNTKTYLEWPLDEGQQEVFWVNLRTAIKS", "UniProt Q9QUK6, residues 26-835": "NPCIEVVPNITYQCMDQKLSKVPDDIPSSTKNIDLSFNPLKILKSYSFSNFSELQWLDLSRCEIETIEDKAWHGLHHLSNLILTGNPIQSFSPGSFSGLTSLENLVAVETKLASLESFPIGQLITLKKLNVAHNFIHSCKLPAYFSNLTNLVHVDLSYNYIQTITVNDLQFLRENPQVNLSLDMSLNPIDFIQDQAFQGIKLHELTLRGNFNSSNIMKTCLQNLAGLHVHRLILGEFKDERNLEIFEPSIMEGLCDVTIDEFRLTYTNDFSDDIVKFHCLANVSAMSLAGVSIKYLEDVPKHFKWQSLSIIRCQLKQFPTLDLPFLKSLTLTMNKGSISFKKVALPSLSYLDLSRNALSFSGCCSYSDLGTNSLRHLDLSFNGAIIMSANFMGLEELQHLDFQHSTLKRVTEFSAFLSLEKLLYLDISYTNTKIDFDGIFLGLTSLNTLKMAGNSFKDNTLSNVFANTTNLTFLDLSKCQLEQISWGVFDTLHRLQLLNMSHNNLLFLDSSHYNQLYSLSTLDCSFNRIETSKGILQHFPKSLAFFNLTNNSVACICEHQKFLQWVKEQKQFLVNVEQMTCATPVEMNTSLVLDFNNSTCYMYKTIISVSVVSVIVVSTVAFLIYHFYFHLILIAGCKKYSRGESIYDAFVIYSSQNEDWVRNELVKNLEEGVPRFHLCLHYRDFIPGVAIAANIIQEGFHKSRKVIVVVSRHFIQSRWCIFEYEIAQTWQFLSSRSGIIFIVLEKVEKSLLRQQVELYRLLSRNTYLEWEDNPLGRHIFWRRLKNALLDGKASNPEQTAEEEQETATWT"}, "source": "paper PMC6523024", "key": {"[1]": {"target": "Toll-like receptor 2 (TLR2), mouse, endogenous (mouse (endogenous in RAW264.7)) (UniProt Q9QUN7)", "test": "co-IP; only the binder purified"}, "[2]": {"target": "Toll-like receptor 4 (TLR4), mouse, endogenous (mouse (endogenous in RAW264.7 and in C57BL/6 peritoneal macrophages)) (UniProt Q9QUK6)", "test": "co-IP; only the binder purified"}}, "note": "No constants are given. Whether binding was seen depends on the method and setting. Binding seen in cells or lysates may run through a third protein. Some binding calls cover weakened binding; strength is not graded here. Where a sequence is shown, tags or fusion partners need not be part of it."}
{"binder": "ESX secretion-associated protein C (EspC) from Mycobacterium tuberculosis, His-tagged recombinant (protein, UniProt P9WJD7 1-103) MTENLTVQPERLGVLASHHDNAAVDASSGVEAAAGLGESVAITHGPYCSQFNDTLNVYLTAHNALGSSLHTAGVDLAKSLRIAAKIYSEADEAWRKAIDGLFT", "values": [{"measurement": "binding", "setting": "[1]", "result": "no binding (tested: 5 μg/mL)"}, {"measurement": "binding", "setting": "[2]", "result": "binds"}]}
